Measured values taken from the supplement of paper PMC7858590.
± gives the standard deviation of the averaged measurements. Whole data set: some 3,800 compounds, median “cell shape (eccentricity) Z-score vs DMSO control” near 1.1, cut for the lowest 2% near -4.7. Some of the results follow. Starred links: 1 amine or outer side, 2 acyl side, 3 side chain; linkers in the order of their positions; H or OH if unused. Positions of bridges follow the written chain, without caps; N, C: chain ends. Non-standard residues stand in square brackets, D forms with d. Residues, ends and D or L forms follow the SMILES beside them. Chains are numbered I, II in the order given. Actinocin(9to1) = Cc1c2oc3c(C)ccc(C(=O)[*:1])c3nc-2c(C(=O)[*:2])c(N)c1=O; NMeV = CN[C@H](C(=O)O)C(C)C; Iva = CC[C](C)(N)C(=O)O; Sar = CNCC(=O)O

What follows are molecules tested on human monocyte-derived macrophages (M0) (assay: cell shape (eccentricity) Z-score vs DMSO control; higher = more elongated, M2-like morphology). Conditions: 20 µM; 24 h; macrophage state: M0 (M-CSF).
Description: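 Primary human monocyte-derived macrophages (M-CSF differentiated, pooled from 4 donors, 5000 cells/well in 384-well plates) were treated with each compound at 20 uM for 24 h, then fixed and stained with phalloidin/DAPI and imaged on an Opera Phenix (6 fields, about 1000 cells/well). Cell eccentricity was measured with CellProfiler, and a Z-score (t-test) was computed against 4 DMSO control wells in the same row. Negative values mean round (M1-like) cells and positive values mean elongated (M2-like) cells; the paper's hit cutoffs are Z <= -4 (M1) and Z >= 6 (M2). Scale: negative = round, M1-like.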

Compound | cell shape (Z-score)
C[C@H]1O[C@@H](O[C@H]2[C@@H](O)C[C@H](O[C@H]3[C@@H](O)C[C@H](O[C@H]4CC[C@]5(C)C6CC[C@]7(C)[C@@H](C8=CC(=O)OC8)CC[C@]7(O)C6CC[C@@H]5C4)O[C@@H]3C)O[C@@H]2C)C[C@H](O)[C@@H]1O (some centres undefined) | -0.685
COc1ccc2c(c1)c(CC(=O)N1CCOCC1)c(C)n2C(=O)c1ccc(Cl)cc1 | 3.89
CCOC(=O)NC(=O)/C(C#N)=C/c1ccc(Cl)c(Cl)c1 | 1.37
COc1cc2oc(-c3ccccc3)cc(=O)c2c(O)c1OC | 3.73
CCN(CC)CCOC(=O)C(c1ccccc1)C1CCCCC1 (centres undefined) | 1.15
C[C@@H]1O[C@@H](O[C@@H]2[C@@H](O)[C@H](O[C@@H]3[C@@H](O)[C@@H](O)[C@H](O[C@H]4[C@H](OC(=O)[C@]56CCC(C)(C)C[C@H]5C5=CCC7[C@@]8(C)C[C@H](O)[C@H](O[C@@H]9O[C@H](C(=O)O)[C@@H](O)[C@H](O)[C@H]9O)[C@@](C)(CO)C8[C@H](O)C[C@@]7(C)[C@]5(C)C[C@H]6O)O[C@@H](CO)[C@@H]4O)O[C@H]3C)OC[C@H]2O)[C@H](O)[C@H](O)[C@H]1O (some centres undefined) | -6.05
CC(=O)O[C@]1(C(C)=O)CCC2C3C=C(Cl)C4=CC(=O)[C@@H]5C[C@@H]5[C@]4(C)C3CC[C@@]21C (some centres undefined) | 3.9
C[C@]12C=CC(=O)C=C1CC[C@@H]1[C@@H]2C(=O)C[C@@]2(C)[C@H]1CC[C@]2(O)C(=O)CO | 3.21
COc1ccc(-c2ccc3c(N4CCOC[C@@H]4C)nc(N4CCOC[C@@H]4C)nc3n2)cc1CO | 0.746
Cc1c2oc3c(C)ccc(C(=O)N[C@@H]4C(=O)N[C@H](C(C)C)C(=O)N5CCC[C@H]5C(=O)N(C)CC(=O)N(C)[C@@H](C(C)C)C(=O)O[C@@H]4C)c3nc-2c(C(=O)N[C@@H]2C(=O)N[C@H](C(C)C)C(=O)N3CCC[C@H]3C(=O)N(C)CC(=O)N(C)[C@@H](C(C)C)C(=O)O[C@@H]2C)c(N)c1=O (I: T[dV]P[Sar][NMeV] / II: T[dV]P[Sar][NMeV]; ester I:1-I:C, II:1-II:C; linker I:N-II:N via Actinocin(9to1)) | 3.73
C[C@@H]1CC[C@]2(C)[C@H](CC[C@@H](O)[C@]2(C)O)[C@@]1(C)CC(=O)c1ccoc1 | 1.62
CC12CCC3C(=CCc4cc(O)ccc43)C1CCC2=O (centres undefined) | 0.553
C=CC(=O)Nc1cc2c(Nc3ccc(F)c(Cl)c3)ncnc2cc1OCCCN1CCOCC1 | 2.89
CC(C)c1ccccc1S(=O)(=O)c1cc(N)c2ncccc2c1[N+](=O)[O-] | 2.36
c1ccc2[nH]c(CCn3c4ccccc4c4ccccc43)nc2c1 | -1.17
CN1CCN(C2=Cc3ccccc3Oc3ccc(Cl)cc32)CC1 | 3.35
CCCn1c(=O)c2nc(-c3ccccc3)[nH]c2n(CCC)c1=O | -1.83
CCCCCCC(=O)OC1CC(C)(C)NC(C)(C)C1 | 0.31
C[C@]12CCC3c4ccc(OC(=O)c5ccccc5)cc4CCC3C1CCC2O (some centres undefined) | 1.95
CCC(C)(NC(C)=O)C(=O)NC(Cc1c[nH]c2ccccc12)C(=O)NC(CCC(N)=O)C(=O)O (stereo not drawn) (Ac-[Iva]-Trp-Gln-OH; configuration not given here) | 8.21
Cc1cc(C)cc(OCC2CNC(=O)O2)c1 (centres undefined) | 2.35
N#CC(=Cc1ccc(O)c(O)c1)C(=O)NCCCCc1ccccc1 | -2.6

Compound | cell shape (Z-score)
O=C(O)CCc1cc2ccoc2cc1O[C@@H]1O[C@H](CO)[C@@H](O)[C@H](O)[C@H]1O | -0.37
COC(=O)C1=COC(O[C@@H]2O[C@H](CO)[C@@H](O)[C@H](O)[C@H]2O)[C@@H]2[C@@](C)(O)[C@@H](OC(=O)/C=C\c3ccccc3)C[C@]12O (some centres undefined) | 2.07
CC1(C)CC[C@]2(C(=O)O[C@@H]3O[C@H](CO)[C@@H](O)[C@H](O)[C@H]3O)CC[C@]3(C)C(=CCC4[C@@]5(C)C[C@@H](O)[C@H](O)[C@@](C)(CO)C5CC[C@]43C)C2C1 (some centres undefined) | -0.496
COc1ccc(/C=C/C(=O)O)cc1OC | -3.58
COc1cc(/C(C)=C/C(C)(O)C(C)O)oc(=O)c1C (centres undefined) | 1.58
O=C(Nc1ccc([N+](=O)[O-])cc1Cl)c1cc(Cl)ccc1O | -4.1 ± 4.2
Nc1nc2c(ncn2COCCO)c(=O)[nH]1 | 7.44
Oc1ccc(/C=C/c2cc(O)cc(O)c2)cc1 | -2.48
CCC(C)[C@H]1O[C@]2(CC[C@@H]1C)C[C@@H]1C[C@@H](C/C=C(\C)[C@@H](OC3C[C@H](OC)C(O[C@H]4C[C@H](OC)[C@@H](O)[C@H](C)O4)[C@H](C)O3)[C@@H](C)/C=C/C=C3\CO[C@@H]4[C@H](O)C(C)=C[C@@H](C(=O)O1)[C@]34O)O2 (some centres undefined) | 2.53
C=C1C(=O)O[C@@H]2[C@H]3C(=C)[C@@H](O[C@@H]4O[C@H](CO)[C@@H](O)[C@H](O)[C@H]4O)C[C@H]3C(=C)C[C@@H](O)[C@@H]12 | 2.36
CC1(C)CC[C@]2(C(=O)O[C@@H]3O[C@H](CO)[C@@H](O)[C@H](O)[C@H]3O)CC[C@]3(C)C(=CCC4[C@@]5(C)C[C@@H](O)[C@H](O)[C@](C)(CO)C5CC[C@]43C)C2[C@@H]1O (some centres undefined) | 1.6
COc1ccc2cc3[n+](cc2c1OC)CCc1cc2c(cc1-3)OCO2 | -1.9
O=C(NCCN1CCC(n2c(=O)[nH]c3ccccc32)CC1)c1ccc2ccccc2c1 | 1.71
OC[C@H]1O[C@@H](n2cnc3c(N[C@H]4CCC[C@@H]4O)ncnc32)[C@H](O)[C@@H]1O | 4.33
CC1OC(Oc2cc(O)c3c(=O)c(OC4OCC(O)C(O)C4O)c(-c4ccc(O)cc4)oc3c2)C(O)C(O)C1O (centres undefined) | 2.06
CN1C(=O)OC(C)(C)C1=O | -0.35
CC(C)NC[C@H](O)COc1cccc2ccccc12 | 0.14
O=C(N[C@@H](CO)[C@H](O)c1ccc([N+](=O)[O-])cc1)C(Cl)Cl | 1.51
Cc1cc(=O)c2c(O)c3c(cc2o1)OC(C(C)(C)OC1OC(CO)C(O)C(O)C1O)C3 (centres undefined) | 0.72
OCCN1CCN(CCCN2c3ccccc3Sc3ccc(C(F)(F)F)cc32)CC1 | 0.215
CCN(CC)CCOc1ccc2c(c1)C(=O)c1cc(OCCN(CC)CC)ccc1-2 | 11.9
COc1ccc(-c2cc(C(F)F)nn2-c2ccc(S(N)(=O)=O)cc2)cc1F | 0.349

Part of the list above, set out differently:

| Compound | cell shape (Z-score) |
| --- | --- |
| CC1(C)CC[C@]2(C(=O)O[C@@H]3O[C@H](CO)[C@@H](O)[C@H](O)[C@H]3O)CC[C@]3(C)C(=CCC4[C@@]5(C)C[C@@H](O)[C@H](O)[C@](C)(CO)C5CC[C@]43C)C2[C@@H]1O (some centres undefined) | 1.6 |
| COc1ccc2cc3[n+](cc2c1OC)CCc1cc2c(cc1-3)OCO2 | -1.9 |
